In article PMC7309463:
These are yes or no findings as the source states them, for the method shown. Binding seen in cells or lysates may run through a third protein. Some binding calls cover weakened binding; strength is not graded here.

By UniProt entry, the sequences of proteins in these tests, tags left out.
UniProt O60346: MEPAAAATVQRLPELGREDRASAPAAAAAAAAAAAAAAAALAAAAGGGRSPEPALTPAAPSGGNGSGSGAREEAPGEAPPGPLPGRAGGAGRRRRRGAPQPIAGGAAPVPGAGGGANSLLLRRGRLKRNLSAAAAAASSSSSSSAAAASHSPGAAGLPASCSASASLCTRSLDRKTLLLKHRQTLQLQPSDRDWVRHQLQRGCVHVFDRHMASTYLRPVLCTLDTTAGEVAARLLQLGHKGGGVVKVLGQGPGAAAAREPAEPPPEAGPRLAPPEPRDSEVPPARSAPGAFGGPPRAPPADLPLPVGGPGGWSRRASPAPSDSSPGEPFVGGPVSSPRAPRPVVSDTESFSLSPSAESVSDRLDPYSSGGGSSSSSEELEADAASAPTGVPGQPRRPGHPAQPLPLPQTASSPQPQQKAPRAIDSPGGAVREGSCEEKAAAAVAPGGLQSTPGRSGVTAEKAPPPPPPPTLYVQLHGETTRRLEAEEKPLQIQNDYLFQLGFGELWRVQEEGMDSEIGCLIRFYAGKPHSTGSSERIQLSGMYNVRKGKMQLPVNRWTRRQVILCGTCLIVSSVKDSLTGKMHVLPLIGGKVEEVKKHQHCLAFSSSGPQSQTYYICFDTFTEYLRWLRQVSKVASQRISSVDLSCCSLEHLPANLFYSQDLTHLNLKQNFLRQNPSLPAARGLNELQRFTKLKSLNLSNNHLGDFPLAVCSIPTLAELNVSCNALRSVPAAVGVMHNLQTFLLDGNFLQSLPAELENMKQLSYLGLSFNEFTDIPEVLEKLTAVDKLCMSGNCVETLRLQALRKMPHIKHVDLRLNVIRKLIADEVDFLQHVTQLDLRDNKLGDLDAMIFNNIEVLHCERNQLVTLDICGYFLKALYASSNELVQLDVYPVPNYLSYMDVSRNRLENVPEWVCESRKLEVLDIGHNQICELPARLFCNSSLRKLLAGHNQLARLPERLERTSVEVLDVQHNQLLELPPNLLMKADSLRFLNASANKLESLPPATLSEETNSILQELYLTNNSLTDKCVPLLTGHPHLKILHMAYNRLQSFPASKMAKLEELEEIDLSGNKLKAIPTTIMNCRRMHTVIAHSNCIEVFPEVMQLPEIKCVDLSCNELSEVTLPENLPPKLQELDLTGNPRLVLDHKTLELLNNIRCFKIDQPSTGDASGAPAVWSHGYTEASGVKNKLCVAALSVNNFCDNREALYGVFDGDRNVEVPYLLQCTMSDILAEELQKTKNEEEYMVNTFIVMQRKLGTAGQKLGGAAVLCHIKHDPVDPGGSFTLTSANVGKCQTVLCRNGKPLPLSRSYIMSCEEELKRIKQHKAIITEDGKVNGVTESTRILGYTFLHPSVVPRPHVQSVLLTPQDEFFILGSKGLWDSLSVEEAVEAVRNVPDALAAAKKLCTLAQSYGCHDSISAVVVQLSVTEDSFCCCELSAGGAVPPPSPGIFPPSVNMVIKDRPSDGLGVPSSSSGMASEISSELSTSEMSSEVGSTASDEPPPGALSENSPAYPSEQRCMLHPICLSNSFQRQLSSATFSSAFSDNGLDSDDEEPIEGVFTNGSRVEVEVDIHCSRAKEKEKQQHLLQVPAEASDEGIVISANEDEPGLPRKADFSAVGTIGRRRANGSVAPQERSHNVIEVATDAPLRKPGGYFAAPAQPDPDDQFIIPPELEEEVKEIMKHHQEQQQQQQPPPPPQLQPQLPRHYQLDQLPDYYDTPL

Target: PH-domain leucine-rich-repeat-containing protein phosphatase 1 (PHLPP1) (human (endogenous in RKO)) (UniProt O60346)
Assay: co-IP; parental RKO cells fixed with 0.8% paraformaldehyde/PBS, lysed in IP lysis buffer (50 mM HEPES-KOH pH 7.5, 140 mM NaCl, 0.5% NP-40, 0.25% Triton X-100); 100 ug lysate with 3 ug anti-HSP47 or anti-PHLPP1 antibody overnight at 4 C, protein-L beads; Western blot

B1: Heat shock protein 47 (HSP47) (protein, UniProt P50454 19-418)
chain: AEVKKPAAAAAPGTAEKLSPKAATLAERSAGLAFSLYQAMAKDQAVENILVSPVVVASSLGLVSLGGKATTASQAKAVLSAEQLRDEEVHAGLGELLRSLSNSTARNVTWKLGSRLYGPSSVSFADDFVRSSKQHYNCEHSKINFRDKRSALQSINEWAAQTTDGKLPEVTKDVERTDGALLVNAMFFKPHWDEKFHHKMVDNRGFMVTRSYTVGVMMMHRTGLYNYYDDEKEKLQIVEMPLAHKLSSLIILMPHHVEPLERLEKLLTKEQLKIWMGKMQKKAVAISLPKGVVEVTHDLQKHLAGLGLTEAIDKNKADLSRMSGKKDLYLASVFHATAFELDTDGNPFDQDIYGREELRSPKLFYADHPFIFLVRDTQSGSLLFIGRLVRPKGDKMRDEL
Which binding does the source give for B1 here?
The binding was “binds”.
